# PubChem BioAssay AID652272 | Drosophila RNAi Screening Center | 2013
# Aim: 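Genes whose knock-down decreases or increases Hedgehog reporter output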 (primary screen)
# Cell system: Drosophila clone 8 (Cl8) cells
# Reagents: long dsRNA against Drosophila genes
# Detection: 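Firefly light from a Hedgehog-responsive ptc promoter reporter and Renilla reference light, both read on a plate reader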
# Scale: firefly Hh reporter signal: higher = more ptc reporter light; Renilla reference signal: higher = more Renilla control light
# Hit rule: 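Hit when the z-score averaged over two replicates is under -2 or over +3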
# Meaning of the calls: active = hit: reporter lowered or raised; inactive = not a hit
# The screen tested about 21,000 reagents; this is an unselected part of those that have a named target and a result. Over the whole deposit, 503 (2.4%) were called active. 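Raw plate light values, not normalised; calls rest on replicate z-scores that were not deposited; hits include reporter decreases as well as increases.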 A number with no mark means an inactive call. Names joined by + are all predicted targets of the reagent. Not given: the amount of reagent, the time to read-out.
gene,dsRNA,"firefly Hh reporter signal, replicate 1","firefly Hh reporter signal, replicate 2","firefly Hh reporter signal, replicate 3","Renilla reference signal, replicate 1","Renilla reference signal, replicate 2"
P5cr (Pyrroline 5-carboyxlate reductase),DRSC16782,5.50e5,84395,,32205,2356
CG31278,DRSC16051,60384,1.14e5,,2167,3025
CG9205,DRSC08642,1.09e5,67473,,4589,2848
CG9297,DRSC16469,1.11e5,1.32e5,,5629,5145
CG42518 + MED9,DRSC06917,1.33e5,77592,,5764,2880
CG12374,DRSC06143,72584,51241,,1899,3841
ppk10 (pickpocket 10),DRSC01123,5.40e5,2.08e5,,25828,9943
CG31140,DRSC13649,55952,3.25e5,,13733,6548
CG31140,DRSC14603,1.04e5,90931,,4109,3744
CG31140,DRSC15904,6.53e5,1.09e5,,33045,3435
bora (aurora borealis),DRSC10744,1.18e5,51707,,4544,1859
Lgr1 (Leucine-rich repeat-containing G protein-coupled receptor 1),DRSC16675,4.89e5,1.18e5,,22240,3273
Crtc (CREB-regulated transcription coactivator),DRSC10578,33880 (active),,,3000,1605
CG31100,DRSC14453,95521,1.05e5,,3675,3105
CG31100,DRSC14455,94506,1.08e5,,3667,3325
CG33557,DRSC17854,66922,2.17e5,,1964,9335
CRIF (CR6-interacting factor),DRSC11811,78589,86108,,2728,2755
synr (sayonara),DRSC02369,1.65e5,84827,,4946,7323
GstD5 (Glutathione S transferase D5),DRSC16686,83605,1.17e5,,3255,3222
CG18477 + CG31780,DRSC01955,86412,60432,,2615,5664
Gyc88E (Guanylyl cyclase at 88E),DRSC15547,1.24e5,1.34e5,,4213,3789
CG15423,DRSC00437,1.28e5,69516,,3511,5634
GlcAT-P (Glucuronyltransferase P),DRSC10603,1.02e5,95769,,4677,3984
GlcAT-P (Glucuronyltransferase P),DRSC10604,71367,36976,49869,5555,3189
CG34144 (retired record),DRSC18885,5.83e5,1.67e5,,34140,4539
CG34144 (retired record),DRSC19380,72145,1.42e5,,1079,6133
CG34144 (retired record),DRSC19480,76832,2.01e5,,2594,7636
gro (groucho),DRSC16962,1.02e5,96020,,2779,2546
"IP3K2 (Inositol 1,4,5-triphosphate kinase 2)",DRSC19500,1.11e5,4.50e5,4.44e5,3196,2931
"IP3K2 (Inositol 1,4,5-triphosphate kinase 2)",DRSC19747,69041,2.19e5,,1493,8682
CG34309,DRSC14838,1.28e5,82505,,3572,1920
Wnt4 (Wnt oncogene analog 4),DRSC00976,2.54e5,88534,,14327,4640
Wnt4 (Wnt oncogene analog 4),DRSC03477,1.22e5,47104,,3041,5399
Rpn1 (Regulatory particle non-ATPase 1),DRSC11274,25378 (active),39955,,1803,2243
Qsox4 (Quiescin sulfhydryl oxidase 4),DRSC14224,1.08e5,96610,,4200,3780
GPHR (Golgi pH Regulator),DRSC07075,99392,63626,,1985,3914
ais (aramis),DRSC10523,1.17e5,48931,,3949,1939
CG2930,DRSC17730,1.16e5,95776,,2758,2964
ttv (tout-velu),DRSC07709,1.22e5,95648,,4784,3300
